The assay concerns LX-1 lung xenograft sc, nude mice, tumor weight. As to the kind of experiment: NCI In Vivo Anticancer Drug Screen. Data for tumor model Human Lung LX-1 Xenograft (subcutaneous) in NU/NU Swiss (nude) mice. The settings on record: T/C endpoint: optimum tumor weight change, schedule: Q04DX003 (ip), higher T/C = larger tumour. How it is done: The antitumor activity of compounds was measured in mice bearing transplantable tumors. Survival or tumor size were measured and the results are expressed as the measurement made in the treated group (T) divided by the measurement made in the vehicle treated control group (C). The tumor model used in this assay is Human Lung LX-1 Xenograft (subcutaneous) in NU/NU Swiss (nude) mice

Where [1] appears, read: dose: 2.0 mg/kg/injection, vehicle: saline.
Where [2] appears, read: dose: 100.0 mg/kg/injection, vehicle: Klucel (hydroxypropylcellulose) (HPC).
Where [3] appears, read: dose: 200.0 mg/kg/injection, vehicle: Klucel (hydroxypropylcellulose) (HPC).
Where [4] appears, read: dose: 16.0 mg/kg/injection, vehicle: saline.
[5] abbreviates: dose: 32.0 mg/kg/injection, vehicle: saline.
The mark [6] stands for this setting: dose: 800.0 mg/kg/injection, vehicle: suspension in saline.

The list is a part of this screen's results and no random one: it is rich in T/C values a quarter to a half above the control, in often repeated tests (any T/C) and in doses without a T/C. Other doses and runs of a compound stand elsewhere. T/C is the treated group as % of the vehicle group. Schedule codes are those of the source, taken here to give the interval after Q, in days (D) or hours (H), and the number of doses after X. Some T/C values carry the count of animals alive at the toxicity check (mostly the fifth day); where none is given, no animal had died by that day. Some values lie below zero, which means that the treated tumours became smaller. Some doses were run more than once; their values stand side by side, smallest first. Some doses have a count of surviving animals in place of a T/C: the source holds a T/C of zero for them, seemingly a mark for toxic or unscored doses. Counts of survivors are from the toxicity check (mostly the fifth day) where no day follows; animals may have died later. Starred links: 1 amine or outer side, 2 acyl side, 3 side chain; linkers in the order of their positions; H or OH if unused. Positions of bridges follow the written chain, without caps; N, C: chain ends. Non-standard residues stand in square brackets, D forms with d. Residues, ends and D or L forms follow the SMILES beside them. Chains are numbered I, II in the order given. Actinocin(9to1) = Cc1c2oc3c(C)ccc(C(=O)[*:1])c3nc-2c(C(=O)[*:2])c(N)c1=O; aThr = C[C@H](O)[C@H](N)C(=O)O; NMeV = CN[C@H](C(=O)O)C(C)C; Sar = CNCC(=O)O

Turning to `Cc1c(N)nc(C(CC(N)=O)NCC(N)C(N)=O)nc1C(=O)NC(C(=O)NC(C)C(O)C(C)C(=O)NC(C(=O)NCCc1nc(-c2nc(C(=O)NCCCNC(C)c3ccccc3)cs2)cs1)C(C)O)C(OC1OC(CO)C(O)C(O)C1OC1OC(CO)C(O)C(OC(N)=O)C1O)c1cnc[nH]1` (stereo not given), the survivor count was 2 of 5 on day 36 (dose: 60.0 mg/kg/injection, vehicle: saline) and 0 of 5 on day 36 (dose: 120.0 mg/kg/injection, vehicle: saline).

Regarding `CN(C)/N=N/c1nc[nH]c1C(N)=O`, the T/C was 13 % of control (dose: 100.0 mg/kg/injection, vehicle: Klucel (hydroxypropylcellulose) (HPC), evaluated on day 33); -2 and 58 % of control (dose: 100.0 mg/kg/injection, vehicle: Klucel (hydroxypropylcellulose) (HPC), evaluated on day 34); 23 % of control (dose: 100.0 mg/kg/injection, vehicle: Klucel (hydroxypropylcellulose) (HPC), evaluated on day 36); -15 % of control (dose: 200.0 mg/kg/injection, vehicle: Klucel (hydroxypropylcellulose) (HPC), evaluated on day 33); -53 [5 of 6 alive on day 36] and 49 % of control (dose: 200.0 mg/kg/injection, vehicle: Klucel (hydroxypropylcellulose) (HPC), evaluated on day 34); -47 % of control (dose: 400.0 mg/kg/injection, vehicle: Klucel (hydroxypropylcellulose) (HPC), evaluated on day 33). Besides, the T/C by setting is: (dose: 400.0 mg/kg/injection, vehicle: Klucel (hydroxypropylcellulose) (HPC), evaluated on day 34) -45 and 34 % of control; (dose: 400.0 mg/kg/injection, vehicle: Klucel (hydroxypropylcellulose) (HPC), evaluated on day 36) 32 % of control; (dose: 800.0 mg/kg/injection, vehicle: Klucel (hydroxypropylcellulose) (HPC), evaluated on day 33) -30 % of control; (dose: 800.0 mg/kg/injection, vehicle: Klucel (hydroxypropylcellulose) (HPC), evaluated on day 34) 22 % of control; (dose: 800.0 mg/kg/injection, vehicle: Klucel (hydroxypropylcellulose) (HPC), evaluated on day 36) 1 % of control. In addition, the survivor count reads like this: (dose: 800.0 mg/kg/injection, vehicle: Klucel (hydroxypropylcellulose) (HPC)) 0 of 6 on day 36 and 2 of 5 on day 34; (dose: 1600.0 mg/kg/injection, vehicle: Klucel (hydroxypropylcellulose) (HPC)) 2 of 5 on day 34; (dose: 3200.0 mg/kg/injection, vehicle: Klucel (hydroxypropylcellulose) (HPC)) 0 of 5 on day 34.

`CC[C@]1(O)C[C@H]2CN(CCc3c([nH]c4ccccc34)[C@@](C(=O)OC)(c3cc4c(cc3OC)N(C=O)[C@H]3[C@@](O)(C(=O)OC)[C@H](OC(C)=O)[C@]5(CC)C=CCN6CC[C@]43[C@@H]65)C2)C1`: the survivor count (dose: 1.0 mg/kg/injection, vehicle: saline) is 3 of 5 on day 41 and the survivor count under setting [1] was 1 of 5 on day 41.

As for `CC(=O)OCC(=O)[C@@]12OC(C)(C)O[C@@H]1C[C@H]1[C@@H]3CC(C=O)=C4C=C(OCCCl)CC[C@]4(C)[C@@]3(F)[C@@H](O)C[C@@]12C`, the survivor count is, setting by setting: under setting [2], 3 of 5 on day 34; under setting [3], 1 of 5 on day 34.

In the case of `CCC1=C[C@H]2CN(CCc3c([nH]c4ccccc34)[C@@](C(=O)OC)(c3cc4c(cc3OC)N(C)[C@H]3[C@@](O)(C(=O)NC)[C@H](OC(C)=O)[C@]5(CC)C=CCN6CC[C@]43[C@@H]65)C2)C1`, the survivor count (dose: 2.0 mg/kg/injection, vehicle: water) was 0 of 5 on day 41.

Turning to `Cc1c(N)nc(C(CC(N)=O)NCC(N)C(N)=O)nc1C(=O)NC(C(=O)NC(C)C(O)CC(=O)NC(C(=O)NC(OC1OC(C)C(N)C(O)C1O)C(O)c1nc(-c2nc(C(=O)NCCCC(N)CC(=O)NCCCNCCCCN)cs2)cs1)C(C)O)C(OC1OC(CO)C(O)C(O)C1OC1OC(CO)C(O)C(OC(N)=O)C1O)c1cnc[nH]1` (stereo not given), the survivor count is reported as 3 of 5 on day 36 under setting [4] and 0 of 5 on day 36 under setting [5].

As for `NC(=S)N/N=C/c1ccc(O)cn1`, the survivor count is reported as 3 of 5 on day 40 (dose: 800.0 mg/kg/injection, vehicle: saline with Tween-80) and 0 of 5 on day 40 (dose: 1600.0 mg/kg/injection, vehicle: saline with Tween-80).

For `CC(CN1CC(=O)NC(=O)C1)N1CC(=O)NC(=O)C1` (stereo not given), the survivor count is 3 of 5 on day 36 (dose: 100.0 mg/kg/injection, vehicle: suspension in saline); 2 of 5 on day 34 and 2 of 5 on day 36 (dose: 400.0 mg/kg/injection, vehicle: suspension in saline); 0 of 5 on day 36 under setting [6].

Take `Cc1c2oc3c(C)ccc(C(=O)N[C@@H]4C(=O)N[C@H](C(C)C)C(=O)N5CCC[C@H]5C(=O)N(C)CC(=O)N(C)[C@@H](C(C)C)C(=O)O[C@H]4C)c3nc-2c(C(=O)N[C@@H]2C(=O)N[C@H](C(C)C)C(=O)N3CCC[C@H]3C(=O)N(C)CC(=O)N(C)[C@@H](C(C)C)C(=O)O[C@H]2C)c(N)c1=O` (I: [aThr][dV]P[Sar][NMeV] / II: [aThr][dV]P[Sar][NMeV]; ester I:1-I:C, II:1-II:C; linker I:N-II:N via Actinocin(9to1)): the T/C (dose: 75.0 micrograms/kg/injection, vehicle: saline, evaluated on day 33) is 133 % of control.

As to `O=C/C(Cl)=C(/Cl)C(=O)O`, the survivor count (dose: 25.0 mg/kg/injection, vehicle: saline with Tween-80) was 1 of 5 on day 36.

As for `NC(Cc1ccc(N(CCCl)CCCl)cc1)C(=O)O` (stereo not given), the survivor count was 2 of 5 on day 36 (dose: 10.0 mg/kg/injection, vehicle: Klucel (hydroxypropylcellulose) (HPC)) and 1 of 5 on day 36 (dose: 20.0 mg/kg/injection, vehicle: Klucel (hydroxypropylcellulose) (HPC)).

Turning to `O=Cc1ccc(O)c(O)c1`, the T/C (dose: 100.0 mg/kg/injection, vehicle: saline with Tween-80, evaluated on day 33) was 129 % of control.

With `CCCC(=O)OCc1cc(=O)n(C)c2c3c4c(cc12)c(C)cc(=O)n4CO3`, the survivor count under setting [2] was 0 of 5 on day 39; the survivor count under setting [3] is recorded as 0 of 5 on day 39; the survivor count (dose: 400.0 mg/kg/injection, vehicle: Klucel (hydroxypropylcellulose) (HPC)) is recorded as 0 of 5 on day 39.

For the compound `N=c1ccn2c(n1)OC1C(O)C(CO)OC12` (stereo not given), the survivor count runs as follows: under setting [6], 1 of 5 on day 36; (dose: 1600.0 mg/kg/injection, vehicle: suspension in saline) 3 of 5 on day 34.

In the case of `Oc1ccc(O)cc1`, the T/C (dose: 100.0 mg/kg/injection, vehicle: saline, evaluated on day 35) was 131 % of control. Also, under “dose: 200.0 mg/kg/injection, vehicle: saline”, the survivor count is given as 0 of 5 on day 37.

Consider `Cc1c(N)nc([C@H](CC(N)=O)NC[C@H](N)C(N)=O)nc1C(=O)N[C@H](C(=O)N[C@H](C)[C@@H](O)CC(=O)N[C@H](C(=O)NC(O[C@@H]1O[C@@H](C)[C@@H](N)[C@@H](O)[C@H]1O)C(O)c1nc(-c2nc(C(=O)NCCCCN)cs2)cs1)[C@@H](C)O)[C@@H](O[C@@H]1O[C@@H](CO)[C@@H](O)[C@H](O)[C@@H]1O[C@H]1O[C@H](CO)[C@@H](O)[C@H](OC(N)=O)[C@@H]1O)c1c[nH]cn1` (stereo not given in full), for which the survivor count by setting is: (dose: 4.0 mg/kg/injection, vehicle: saline) 3 of 5 on day 35; (dose: 8.0 mg/kg/injection, vehicle: saline) 1 of 5 on day 35; under setting [4], 2 of 5 on day 35; under setting [5], 0 of 5 on day 35.

Consider `COc1cccc2c1C(=O)c1c(O)c3c(c(O)c1C2=O)C[C@@](O)(C(C)=O)C[C@@H]3OC1CC(N)C(O)C(C)O1` (stereo not given in full), for which the survivor count under setting [1] was 3 of 5 on day 36.

These data come from PubChem BioAssay AID262 (DTP/NCI, 2004).
